Measured data: PubChem BioAssay AID1259280 (Sanger Institute, 2017)
This is an unselected part of 794 deposited reagents. 12 of them (1.5%) count as active. 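Calls cover knock-down without drug only; synergy scores stand apart, values above 0.15 being treated as synergy.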 A number with no mark means an inactive call. Viability is capped at 1. Further read-outs or replicates are left out here. The record does not give: the amount of reagent, the time to read-out.

Purpose: 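Kinase knock-downs that kill colorectal cancer cells or add to anchor drugs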 (primary screen)
Cells: human SNU407 colorectal cancer cells
Reagents: siRNA pool against human genes
Challenge: anchor drugs BYL719 at 1 µM, cetuximab at 5 µg/ml or trametinib at 10 nM, or DMSO vehicle alone; exposure time not given
Measured: 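Viability relative to non-targeting control siRNA, expressed as robust z-score, plus a synergy score for each of the three anchor drugs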
Reading the numbers: viability z-score, no drug and viability vs control, no drug: higher = more cells survive the knock-down; synergy with trametinib and synergy with BYL719: higher = stronger synergy of knock-down with drug
Hit rule: 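Essential calls require a no-drug robust viability z-score under -3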
Meaning of the calls: active = essential (knock-down alone kills cells); inactive = no change without drug

| gene knocked down | viability z-score, no drug | viability vs control, no drug (fraction of control) | synergy with trametinib | synergy with BYL719 |
| --- | --- | --- | --- | --- |
| LRRK1 | 0.901 | 1 | 0.103 | -0.0408 |
| POMK | 0.6 | 0.977 | -0.0921 | -0.0153 |
| TTK | -0.943 | 0.859 | 0.000584 | -0.0654 |
| NRAS | 0.711 | 0.985 | -0.0545 | -0.0263 |
| PAK1 | -1.3 | 0.832 | -0.116 | 0.0471 |
| MAPK7 | -1.05 | 0.851 | 0.0369 | -0.105 |
| MAP2K3 | 0.901 | 1 | 0.0677 | 0.0811 |
| GRK1 | -0.402 | 0.9 | -0.119 | -0.0601 |
| DIS3 | 0.628 | 0.979 | 0.0139 | 0.0399 |
| GRK6 | -0.966 | 0.857 | -0.00559 | 0.00648 |
| PIP5K1B | 0.901 | 1 | 0.0895 | 0.221 |
| NEK7 | 0.382 | 0.96 | -0.0798 | -0.101 |
| CERT1 | -0.354 | 0.904 | 0.0351 | -0.0181 |
| COQ8B | 0.747 | 0.988 | 0.00365 | 0.0995 |
| PIP5K1C | 0.364 | 0.959 | -0.0229 | -0.0569 |
| MYO3A | -1.07 | 0.85 | 0.00303 | -0.0154 |
| MAP3K21 | -0.0242 | 0.929 | -0.108 | -0.0121 |
| EIF2AK1 | 0.0189 | 0.933 | -0.106 | 0.11 |
| SRP72 | 0.741 | 0.988 | 0.0278 | -0.0715 |
| TPK1 | -1.95 | 0.782 | -0.01 | -0.0608 |
| PIK3CA | -0.619 | 0.884 | 0.0818 | 0.0945 |
| MAP2K5 | 0.838 | 0.995 | 0.0558 | 0.0856 |
| AMER1 | 0.901 | 1 | -0.00206 | 0.124 |
| MAP4K3 | -0.274 | 0.91 | 0.0521 | 0.0841 |
| PDPK1 | 0.775 | 0.99 | 0.0282 | 0.182 |
| PHKB | 0.901 | 1 | -0.0915 | -0.0148 |
| MAP3K11 | 0.901 | 1 | 0.075 | 0.00986 |
| TGFBR3 | 0.901 | 1 | -0.00269 | -0.0222 |
| RET | 0.282 | 0.953 | 0.0468 | 0.0566 |
| CDKN2B | -0.0515 | 0.927 | -0.155 | -0.107 |
| RIOK1 | 0.259 | 0.951 | -0.0306 | 0.0901 |
| BRAF | -1.87 | 0.788 | -0.0301 | -0.0527 |
| MAP3K5 | 0.821 | 0.994 | 0.0924 | 0.0723 |
| TRIO | 0.901 | 1 | -0.0503 | 0.0231 |
| NEK8 | -0.902 | 0.862 | 0.00814 | 0.119 |
| TP53BP1 | 0.265 | 0.951 | -0.0822 | -0.0473 |
| PRKACG | 0.901 | 1 | -0.0341 | 0.00665 |
| EPHA5 | 0.901 | 1 | 0.0151 | 0.072 |
| SCYL3 | -0.121 | 0.922 | -0.0553 | -0.143 |
| ROR2 | 0.901 | 1 | -0.042 | 0.0564 |
| NEK9 | 0.858 | 0.997 | 0.0895 | 0.0582 |
| MAP2K2 | 0.0496 | 0.935 | 0.0308 | 0.03 |
| CDK3 | 0.901 | 1 | 0.118 | 0.0624 |
| CAMK2N1 | -0.232 | 0.913 | -0.00183 | 0.0407 |
| ULK3 | -0.687 | 0.879 | -0.112 | -0.11 |
| DCLK3 | 0.226 | 0.948 | -0.0993 | -0.0097 |
| PDGFRL | 0.0122 | 0.932 | -0.158 | -0.0385 |
| EIF2AK3 | 0.734 | 0.987 | 0.062 | 0.0905 |
| MARK3 | 0.0142 | 0.932 | -0.0455 | 0.0434 |
| PAK3 | -1.17 | 0.842 | -0.0033 | 0.0791 |

Reformatted: 4 of the entries above
PAK1 — viability z-score, no drug: -1.3; viability vs control, no drug (fraction of control): 0.832; synergy with trametinib: -0.116; synergy with BYL719: 0.0471
MAPK7 — viability z-score, no drug: -1.05; viability vs control, no drug (fraction of control): 0.851; synergy with trametinib: 0.0369; synergy with BYL719: -0.105
MAP2K3 — viability z-score, no drug: 0.901; viability vs control, no drug (fraction of control): 1; synergy with trametinib: 0.0677; synergy with BYL719: 0.0811
GRK1 — viability z-score, no drug: -0.402; viability vs control, no drug (fraction of control): 0.9; synergy with trametinib: -0.119; synergy with BYL719: -0.0601
